Laboratory results reported in publication doi:10.1101/2025.02.06.636805.
These are yes or no findings as the source states them, for the method shown. Binding seen in cells or lysates may run through a third protein. Some results given as binding are weak or reduced against the parent protein; the word gives no strength.

The chains behind the UniProt entries cited, without tags or fusion partners. Residues count along the entry.
UniProt Q9NZQ7, residues 19-290: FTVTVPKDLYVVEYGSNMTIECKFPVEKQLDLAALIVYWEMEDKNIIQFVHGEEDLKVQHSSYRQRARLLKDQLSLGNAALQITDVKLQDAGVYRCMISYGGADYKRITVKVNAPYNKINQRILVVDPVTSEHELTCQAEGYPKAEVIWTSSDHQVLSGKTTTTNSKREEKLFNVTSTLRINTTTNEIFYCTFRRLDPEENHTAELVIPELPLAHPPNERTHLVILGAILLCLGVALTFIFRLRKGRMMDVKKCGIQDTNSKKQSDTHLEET
UniProt Q9UGP4: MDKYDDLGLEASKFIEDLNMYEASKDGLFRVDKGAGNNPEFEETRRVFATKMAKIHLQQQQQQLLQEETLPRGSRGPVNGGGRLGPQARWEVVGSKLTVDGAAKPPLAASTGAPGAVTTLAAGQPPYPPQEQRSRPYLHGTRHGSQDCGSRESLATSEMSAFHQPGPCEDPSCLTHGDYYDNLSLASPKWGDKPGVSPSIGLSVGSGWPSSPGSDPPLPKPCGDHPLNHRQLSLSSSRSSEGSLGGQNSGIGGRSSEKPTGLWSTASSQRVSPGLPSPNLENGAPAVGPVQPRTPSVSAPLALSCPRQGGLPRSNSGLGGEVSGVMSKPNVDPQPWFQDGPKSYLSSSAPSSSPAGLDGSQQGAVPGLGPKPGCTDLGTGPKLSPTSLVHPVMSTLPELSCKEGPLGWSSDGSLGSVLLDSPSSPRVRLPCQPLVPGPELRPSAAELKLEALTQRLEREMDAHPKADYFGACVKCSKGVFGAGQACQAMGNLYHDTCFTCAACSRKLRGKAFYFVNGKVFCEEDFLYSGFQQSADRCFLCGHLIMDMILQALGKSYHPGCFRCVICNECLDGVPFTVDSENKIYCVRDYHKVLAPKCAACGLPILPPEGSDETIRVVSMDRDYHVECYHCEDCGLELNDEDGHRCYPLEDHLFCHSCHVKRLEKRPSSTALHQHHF
UniProt Q9Y4X5: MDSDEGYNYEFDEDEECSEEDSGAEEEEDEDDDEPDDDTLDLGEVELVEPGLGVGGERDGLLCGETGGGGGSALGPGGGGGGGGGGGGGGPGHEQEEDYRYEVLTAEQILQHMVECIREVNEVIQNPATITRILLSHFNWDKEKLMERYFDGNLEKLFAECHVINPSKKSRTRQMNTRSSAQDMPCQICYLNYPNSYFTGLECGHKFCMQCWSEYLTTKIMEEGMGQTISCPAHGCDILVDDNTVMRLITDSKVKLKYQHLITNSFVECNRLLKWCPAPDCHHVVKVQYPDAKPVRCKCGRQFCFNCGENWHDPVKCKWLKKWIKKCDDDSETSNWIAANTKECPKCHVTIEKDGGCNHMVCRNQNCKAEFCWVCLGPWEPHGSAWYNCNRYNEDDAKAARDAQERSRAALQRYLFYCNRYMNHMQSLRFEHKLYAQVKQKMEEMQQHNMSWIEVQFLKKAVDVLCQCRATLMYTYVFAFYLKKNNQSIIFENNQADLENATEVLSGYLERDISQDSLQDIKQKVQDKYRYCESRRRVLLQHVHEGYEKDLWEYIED

Legend:
HA-PD-L1 = HA-PD-L1 (UniProt Q9NZQ7); assay: co-IP
[1] = biological target: LIMD1 (human (endogenous in A549)) (UniProt Q9UGP4); assay: co-IP

## ARIH1 (from UniProt Q9Y4X5 1-557) (enzyme)
HA-PD-L1
  binding: binds
[1]
  binding: binds
